# Measurements reported in the supplement of paper PMC12872613.
# Counter-ions that a name gives are not always drawn. The list shows a part of the results. No stated cut-off is given here; in the data, active = 0.7 or more and inactive = the rest. Many values rest on one well or one pass, so single values are uncertain.
# System: MiaPaCa-2 CLSA-25
# Assay: cell death relative to DMSO vehicle (fraction); higher = more cytotoxic
# Conditions: 5 µM; treatment time 48 h; medium cystine 25 µM
row,SMILES,cell death
1,C[C@H](CCC(=O)O)[C@H]1CC[C@H]2[C@@H]3[C@H](O)C[C@@H]4C[C@H](O)CC[C@]4(C)[C@H]3CC[C@]12C [Chenodeoxycholic acid],inactive: 0.0468
2,O=C([O-])c1ccccc1O.[Na+] [Sodium salicylate],inactive: 0.0417
3,NCCCC(=O)O [4-Aminobutyric acid],inactive: 0.00375
4,O=C(CCc1ccc(O)cc1)c1c(O)cc(O)cc1O[C@@H]1O[C@H](CO)[C@@H](O)[C@H](O)[C@H]1O [Phlorizin],inactive: 0.00856
5,CC1=CC(=O)c2ccccc2C1=O [Menadione],inactive: 0.0204
6,Nc1nc2[nH]cc(CCc3ccc(C(=O)N[C@@H](CCC(=O)O)C(=O)O)cc3)c2c(=O)[nH]1 [Pemetrexed disodium],inactive: 0.175
7,O=C(O)C(O)Cc1ccc(O)c(O)c1 (configuration not stated) [Sodium Danshensu],inactive: 0.0327
8,O=S(=O)(O)Oc1ccc(C(c2ccc(OS(=O)(=O)O)cc2)c2ccccn2)cc1 [Sodium Picosulfate],inactive: 0.0091
9,CCCCCOC1CCC(NC(=O)c2cnn3c(C)cc(C)nc23)CC1 (configuration not stated),inactive: 0.14
10,CC(N)CCCC(C)(C)O (configuration not stated) [Heptaminol hydrochloride],inactive: 0.0556
11,C[C@H](O)[C@@H](O)[C@@H](O)[C@H](O)C=O [L-(-)-Fucose],active: 0.73
12,CCCCCCCCC(=O)N[C@H](CN1CCCC1)[C@H](O)c1ccc2c(c1)OCCO2,inactive: 0.15
